Measurements reported in paper doi:10.1101/2022.06.13.495990.
These are yes or no findings as the source states them, for the method shown. In cells and extracts the contact can be indirect. A yes stands for co-enrichment or nearness to the bait. Other partners may have been found. A no says only that the protein was not detected with the bait. Where a sequence is shown, tags or fusion partners need not be part of it.

T1: Cilia- and Flagella-Associated Protein 418 (CFAP418), endogenous in mouse retina (mouse (endogenous in mouse retina)) (UniProt Q3UJP5)
T1 sequence: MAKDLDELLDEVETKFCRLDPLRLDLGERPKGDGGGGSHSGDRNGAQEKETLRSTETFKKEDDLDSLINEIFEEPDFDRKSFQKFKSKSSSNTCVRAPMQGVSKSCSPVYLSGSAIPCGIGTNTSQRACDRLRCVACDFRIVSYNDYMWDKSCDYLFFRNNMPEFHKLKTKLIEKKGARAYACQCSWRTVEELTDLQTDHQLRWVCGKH

T2: GST-tagged mouse CFAP418 C-terminal bait (169-209 aa) (mouse) (UniProt Q3UJP5)
T2 sequence: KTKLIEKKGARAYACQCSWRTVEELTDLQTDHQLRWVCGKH

T3: GST-tagged mouse CFAP418 full-length (mouse) (UniProt Q3UJP5)
T3 sequence: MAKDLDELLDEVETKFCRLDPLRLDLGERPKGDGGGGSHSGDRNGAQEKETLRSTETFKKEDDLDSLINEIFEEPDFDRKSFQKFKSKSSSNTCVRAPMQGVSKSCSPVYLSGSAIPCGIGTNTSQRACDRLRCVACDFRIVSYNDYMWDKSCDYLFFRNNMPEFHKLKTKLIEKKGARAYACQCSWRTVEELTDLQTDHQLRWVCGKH

B1: VPS4B, endogenous in mouse retina (protein, UniProt P46467 1-444)
chain: MASTNTNLQKAIDLASKAAQEDKAGNYEEALQLYQHAVQYFLHVVKYEAQGDKAKQSIRAKCTEYLDRAEKLKEYLKKKEKKPQKPVKEEQSGPVDEKGNDSDGEAESDDPEKKKLQNQLQGAIVIERPNVKWSDVAGLEGAKEALKEAVILPIKFPHLFTGKRTPWRGILLFGPPGTGKSYLAKAVATEANNSTFFSISSSDLVSKWLGESEKLVKNLFQLARENKPSIIFIDEIDSLCGSRSENESEAARRIKTEFLVQMQGVGVDNDGILVLGATNIPWVLDSAIRRRFEKRIYIPLPEAHARAAMFRLHLGSTQNSLTEADFQELGRKTDGYSGADISIIVRDALMQPVRKVQSATHFKKVRGPSRADPNCIVNDLLTPCSPGDPGAIEMTWMDVPGDKLLEPVVSMWDMLRSLSSTKPTVNEQDLLKLKKFTEDFGQEG
B2: VPS4B, endogenous in bovine retina (protein, UniProt Q0VD48 1-444)
chain: MASTPTNLQKAIDLASKAAQEDKAGNYEEALQLYQHAVQYFLHVVKYEAQGDKAKQSIRAKCTEYLDRAEKLKEYLKKREKKPQKPVKEGQPAPADEKGNDSDGEGESDDPEKKKLQNQLQGAIVIERPNVKWSDVAGLEGAKEALKEAVILPIKFPHLFTGKRTPWRGILLFGPPGTGKSYLAKAVATEANNSTFFSISSSDLVSKWLGESEKLVKNLFQLARENKPSIIFIDEIDSLCGSRSENESEAARRIKTEFLVQMQGVGVDNDGILVLGATNIPWVLDSAIRRRFEKRIYIPLPEAHARAAMFKLHLGTTQNSLTEADFRDLGKKTEGYSGADISIIVRDALMQPVRKVQSATHFKKVRGPSRADPNNIVDDLLTPCSPGDPGAIEMTWMDVPGDKLLEPVVCMSDMLRSLSSTKPTVNEHDLLKLKKFTEDFGQEG

Legend:
Assay in all cases: affinity purification with mass spectrometry
[1] = biological target: T1, Cilia- and Flagella-Associated Protein 418 (CFAP418), endogenous in mouse retina (mouse (endogenous in mouse retina))
[2] = biological target: T2, GST-tagged mouse CFAP418 C-terminal bait (169-209 aa) (mouse)
[3] = biological target: T3, GST-tagged mouse CFAP418 full-length (mouse)

| Binder | binding [1] | binding [2] | binding [3] |
| --- | --- | --- | --- |
| B1 | no binding |  |  |
| B2 |  | no binding | no binding |
